# The supplement of paper PMC8728848
# The list shows a part of the results.
# B1: PX14379D-pdi-530-26-530 (Parabacteroides distasonis) (protein)
# chain: DETVYDKLPADDFGQSTAELNALIGNSHNTMKKFWTEYMHLSECSGSMAVTPTRRGGDWYDGGQYREIYMHTWTSQTSRVKSAWKAATEAIGTCNEAIRKLQNSEILTEEEKAQDVADLRGVRAFWIYVMMDYWGNIPLLTEFHPTDKVFPGNSSRQEVFDWLIQEVEEIKDICPPATTENYGSFTQGAAYSLLAKLYLNAEAWGVTFSGNAYQKVIDNCDKVMAMGYILEPNWKDNFSVTNENSKEAILAATFSSSDTGNDGNVKNELHNNTLHYKDYLSLGITASGTWNGICAQPEYVRLFDEEDARLDGTFLTGLMIDKSTGKPIMTDHNNELNHTIDVNMIPGMEYDGTNWSAVEQHDGARCFKWEFASDLTSSMGNDFHIFRLADIYLMKAEALLRGGGSVSEATALVNTIRERGYGNSDHNYATVTLKEVQLERRLELAWEVYSRQDDIRFGCFTTGMWPQSNCERKADDYLKLLPVSQDAWQVNPNLKQNPGYAAFSK
# Assays:
# Test in all cases: glycan array binding signal (z-score within array); higher = stronger binding
# Conditions in all cases: glycan notation: IUPAC condensed, linker removed
# [1] = molecular target: Neu5Ac(a2-3)Gal(b1-4)GlcNAc(b1-3)Gal(b1-4)GlcNAc(b1-3)Gal(b1-4)GlcNAc
# Summary of the method: (§1)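 Glycan array data were curated from 3228 arrays in the Consortium for Functional Glycomics database and kept only where the protein sequence was available. Glycan names were converted to IUPAC-condensed notation, and columns mapping to the same glycan were averaged. The binding signal is a within-array Z-score, averaged across arrays of the same protein sequence at different concentrations or buffers and across linkers. Negative Z-scores can be read as non-binding.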
# [2] = molecular target: Neu5Ac(a2-3)Gal(b1-4)GlcNAc(b1-3)Gal(b1-4)GlcNAc(b1-3)Gal(b1-4)GlcNAc(b1-2)Man(a1-3)[Neu5Ac(a2-3)Gal(b1-4)GlcNAc(b1-3)Gal(b1-4)GlcNAc(b1-3)Gal(b1-4)GlcNAc(b1-2)Man(a1-6)]GalNAc
# Summary of the method: as §1
# [3] = molecular target: Neu5Ac(a2-3)Gal(b1-4)GlcNAc(b1-3)Gal(b1-4)GlcNAc(b1-3)GalNAc
# Summary of the method: as §1
# [4] = molecular target: Neu5Ac(a2-3)Gal(b1-4)GlcNAc(b1-3)Gal(b1-4)GlcNAc(b1-3)[Neu5Ac(a2-3)Gal(b1-4)GlcNAc(b1-3)Gal(b1-4)GlcNAc(b1-6)]GalNAc
# Summary of the method: as §1
# [5] = molecular target: Neu5Ac(a2-3)Gal(b1-4)GlcNAc(b1-3)Gal(b1-4)GlcNAc(b1-6)[Gal(b1-3)]GalNAc
# Summary of the method: as §1
# [6] = molecular target: Neu5Ac(a2-3)Gal(b1-4)GlcNAc(b1-3)Gal(b1-4)[Fuc(a1-3)]GlcNAc
# Summary of the method: as §1
# [7] = molecular target: Neu5Ac(a2-3)Gal(b1-4)GlcNAc(b1-3)GalNAc
# Summary of the method: as §1
# [8] = molecular target: Neu5Ac(a2-3)Gal(b1-4)GlcNAc(b1-3)[Neu5Ac(a2-3)Gal(b1-4)GlcNAc(b1-6)]GalNAc
# Summary of the method: as §1
# [9] = molecular target: Neu5Ac(a2-3)Gal(b1-4)GlcNAc(b1-6)GalNAc
# Summary of the method: as §1
# [10] = molecular target: Neu5Ac(a2-3)Gal(b1-4)GlcNAc(b1-6)[Gal(b1-3)]GalNAc
# Summary of the method: as §1
# [11] = molecular target: Neu5Ac(a2-3)Gal(b1-4)GlcNAc(b1-6)[Neu5Ac(a2-3)Gal(b1-3)]GalNAc
# Summary of the method: as §1
# [12] = molecular target: Neu5Ac(a2-3)Gal(b1-4)GlcNAc6S
# Summary of the method: as §1
# [13] = molecular target: Neu5Ac(a2-3)Gal(b1-4)[Fuc(a1-3)]GlcNAc
# Summary of the method: as §1
# [14] = molecular target: Neu5Ac(a2-3)Gal(b1-4)[Fuc(a1-3)]GlcNAc(b1-2)Man
# Summary of the method: as §1
# [15] = molecular target: Neu5Ac(a2-3)Gal(b1-4)[Fuc(a1-3)]GlcNAc(b1-3)Gal
# Summary of the method: as §1
# [16] = molecular target: Neu5Ac(a2-3)Gal(b1-4)[Fuc(a1-3)]GlcNAc(b1-3)Gal(b1-4)GlcNAc
# Summary of the method: as §1
# [17] = molecular target: Neu5Ac(a2-3)Gal(b1-4)[Fuc(a1-3)]GlcNAc(b1-3)Gal(b1-4)[Fuc(a1-3)]GlcNAc(b1-3)Gal(b1-4)[Fuc(a1-3)]GlcNAc
# Summary of the method: as §1
# [18] = molecular target: Neu5Ac(a2-3)Gal(b1-4)[Fuc(a1-3)]GlcNAc(b1-3)GalNAc
# Summary of the method: as §1
# [19] = molecular target: Neu5Ac(a2-3)Gal(b1-4)[Fuc(a1-3)]GlcNAc(b1-6)[Gal(b1-3)]GalNAc
# Summary of the method: as §1
# [20] = molecular target: Neu5Ac(a2-3)Gal(b1-4)[Fuc(a1-3)]GlcNAc(b1-6)[Neu5Ac(a2-3)Gal(b1-3)]GalNAc
# Summary of the method: as §1
# [21] = molecular target: Neu5Ac(a2-3)Gal(b1-4)[Fuc(a1-3)]GlcNAc6S
# Summary of the method: as §1
# [22] = molecular target: Neu5Ac(a2-3)Gal6S(b1-4)GlcNAc
# Summary of the method: as §1
# [23] = molecular target: Neu5Ac(a2-3)Gal6S(b1-4)[Fuc(a1-3)]GlcNAc
# Summary of the method: as §1
# [24] = molecular target: Neu5Ac(a2-3)GalNAc
# Summary of the method: as §1
# [25] = molecular target: Neu5Ac(a2-3)GalNAc(b1-4)GlcNAc
# Summary of the method: as §1
# [26] = molecular target: Neu5Ac(a2-3)[GalNAc(b1-4)]Gal(b1-4)Glc
# Summary of the method: as §1
# [27] = molecular target: Neu5Ac(a2-3)[GalNAc(b1-4)]Gal(b1-4)GlcNAc
# Summary of the method: as §1
# [28] = molecular target: Neu5Ac(a2-3)[GalNAc(b1-4)]Gal(b1-4)GlcNAc(b1-3)GalNAc
# Summary of the method: as §1
# [29] = molecular target: Neu5Ac(a2-3)[Neu5Ac(a2-6)]GalNAc
# Summary of the method: as §1
# [30] = molecular target: Neu5Ac(a2-6)Gal
# Summary of the method: as §1
# [31] = molecular target: Neu5Ac(a2-6)Gal(b1-3)GlcNAc(b1-3)[Gal(b1-4)GlcNAc(b1-6)]Gal(b1-4)Glc
# Summary of the method: as §1
# [32] = molecular target: Neu5Ac(a2-6)Gal(b1-4)Glc
# Summary of the method: as §1
# [33] = molecular target: Neu5Ac(a2-6)Gal(b1-4)GlcNAc
# Summary of the method: as §1
# [34] = molecular target: Neu5Ac(a2-6)Gal(b1-4)GlcNAc(b1-2)Man
# Summary of the method: as §1
# [35] = molecular target: Neu5Ac(a2-6)Gal(b1-4)GlcNAc(b1-2)Man(a1-3)Man(b1-4)GlcNAc(b1-4)GlcNAc
# Summary of the method: as §1
# [36] = molecular target: Neu5Ac(a2-6)Gal(b1-4)GlcNAc(b1-2)Man(a1-3)[Gal(b1-4)GlcNAc(b1-2)Man(a1-6)]Man(b1-4)GlcNAc(b1-4)GlcNAc
# Summary of the method: as §1
# [37] = molecular target: Neu5Ac(a2-6)Gal(b1-4)GlcNAc(b1-2)Man(a1-3)[GlcNAc(b1-2)Man(a1-6)]Man(b1-4)GlcNAc(b1-4)GlcNAc
# Summary of the method: as §1
# [38] = molecular target: Neu5Ac(a2-6)Gal(b1-4)GlcNAc(b1-2)Man(a1-3)[GlcNAc(b1-4)][Neu5Ac(a2-6)Gal(b1-4)GlcNAc(b1-2)Man(a1-6)]Man(b1-4)GlcNAc(b1-4)GlcNAc
# Summary of the method: as §1
binder,measurement,setting,value
B1,glycan array binding signal (z-score),[1],1.36
same,glycan array binding signal (z-score),[2],1
same,glycan array binding signal (z-score),[3],-0.455
same,glycan array binding signal (z-score),[4],-0.549
same,glycan array binding signal (z-score),[5],-0.749
same,glycan array binding signal (z-score),[6],0.466
same,glycan array binding signal (z-score),[7],-0.3
same,glycan array binding signal (z-score),[8],0.434
same,glycan array binding signal (z-score),[9],-0.342
same,glycan array binding signal (z-score),[10],-0.321
same,glycan array binding signal (z-score),[11],-0.38
same,glycan array binding signal (z-score),[12],-0.163
same,glycan array binding signal (z-score),[13],-0.312
same,glycan array binding signal (z-score),[14],0.602
same,glycan array binding signal (z-score),[15],-1.4
same,glycan array binding signal (z-score),[16],1.87
same,glycan array binding signal (z-score),[17],-0.094
same,glycan array binding signal (z-score),[18],0.974
same,glycan array binding signal (z-score),[19],0.961
same,glycan array binding signal (z-score),[20],0.397
same,glycan array binding signal (z-score),[21],-0.739
same,glycan array binding signal (z-score),[22],-1.11
same,glycan array binding signal (z-score),[23],-0.382
same,glycan array binding signal (z-score),[24],0.813
same,glycan array binding signal (z-score),[25],-1.02
same,glycan array binding signal (z-score),[26],-1.1
same,glycan array binding signal (z-score),[27],-0.285
same,glycan array binding signal (z-score),[28],0.45
same,glycan array binding signal (z-score),[29],-1.44
same,glycan array binding signal (z-score),[30],-0.05
same,glycan array binding signal (z-score),[31],-0.655
same,glycan array binding signal (z-score),[32],0.207
same,glycan array binding signal (z-score),[33],-0.088
same,glycan array binding signal (z-score),[34],-1.03
same,glycan array binding signal (z-score),[35],0.147
same,glycan array binding signal (z-score),[36],0.392
same,glycan array binding signal (z-score),[37],0.474
same,glycan array binding signal (z-score),[38],0.549

# Retrieved one by one from above, three records:
binder,measurement,setting,value
B1,glycan array binding signal (z-score),[29],-1.44
same,glycan array binding signal (z-score),[38],0.549
same,glycan array binding signal (z-score),[26],-1.1
